No constants are given. Whether binding was seen depends on the method and setting. Some results given as binding are weak or reduced against the parent protein; the word gives no strength.
Target: T1, recombinant full-length Apaf-1XL, O14727
T1 chain: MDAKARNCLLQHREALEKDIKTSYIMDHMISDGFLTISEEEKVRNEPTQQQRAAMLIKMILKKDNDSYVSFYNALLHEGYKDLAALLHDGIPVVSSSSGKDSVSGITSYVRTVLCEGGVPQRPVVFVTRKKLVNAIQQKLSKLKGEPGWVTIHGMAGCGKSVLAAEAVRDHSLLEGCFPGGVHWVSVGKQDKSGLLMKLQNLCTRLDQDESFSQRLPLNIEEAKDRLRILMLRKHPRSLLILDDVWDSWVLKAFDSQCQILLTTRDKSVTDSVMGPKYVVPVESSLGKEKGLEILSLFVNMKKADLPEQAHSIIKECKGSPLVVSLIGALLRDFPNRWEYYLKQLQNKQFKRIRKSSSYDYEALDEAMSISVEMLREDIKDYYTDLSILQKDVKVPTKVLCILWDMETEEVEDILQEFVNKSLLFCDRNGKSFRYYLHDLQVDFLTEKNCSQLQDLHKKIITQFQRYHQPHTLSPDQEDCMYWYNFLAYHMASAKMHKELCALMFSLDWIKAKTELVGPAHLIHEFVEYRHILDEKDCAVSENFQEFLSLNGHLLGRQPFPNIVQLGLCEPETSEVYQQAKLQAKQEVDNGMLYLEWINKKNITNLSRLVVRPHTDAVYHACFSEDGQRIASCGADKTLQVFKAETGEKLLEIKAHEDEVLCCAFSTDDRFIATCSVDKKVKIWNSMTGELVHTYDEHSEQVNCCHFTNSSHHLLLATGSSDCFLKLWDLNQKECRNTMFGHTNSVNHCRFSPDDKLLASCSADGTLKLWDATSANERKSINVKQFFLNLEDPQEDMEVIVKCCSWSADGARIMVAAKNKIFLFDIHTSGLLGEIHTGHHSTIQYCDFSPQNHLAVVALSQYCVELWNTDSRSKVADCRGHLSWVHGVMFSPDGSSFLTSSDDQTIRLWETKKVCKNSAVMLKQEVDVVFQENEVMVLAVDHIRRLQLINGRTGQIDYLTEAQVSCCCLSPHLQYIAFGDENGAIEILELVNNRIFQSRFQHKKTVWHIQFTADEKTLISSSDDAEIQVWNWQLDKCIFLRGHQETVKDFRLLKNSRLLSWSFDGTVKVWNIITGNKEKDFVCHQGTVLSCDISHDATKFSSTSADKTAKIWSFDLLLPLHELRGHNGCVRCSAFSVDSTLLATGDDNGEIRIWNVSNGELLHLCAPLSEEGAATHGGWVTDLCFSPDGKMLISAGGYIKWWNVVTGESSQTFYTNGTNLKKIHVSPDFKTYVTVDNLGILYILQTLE
Test: SEC; Apaf-1 (300 nM) with C9 protein (200 nM) and Cc/dATP, 30 min 37 °C; Superose-6 gel filtration, pooled fractions precipitated and immunoblotted for Apaf-1 and C9; both purified
Settings: remark: other sources report otherwise

binding: binds
B1: recombinant full-length Apaf-1XL, O14727-1 1-1248 (protein)
chain: T1 chain

— publication PMC5123071
